# Experimental data: PubChem BioAssay AID1224828 (NIAID, 2016)
# Test: 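Regulators linking TLR4 signalling to p65 nuclear translocation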 (primary screen)
# Cells: mouse RAW264.7 G9 macrophage reporter cells (GFP-p65, Tnf promoter-mCherry)
# Reagent: siRNA pool against mouse genes, 100 nM
# Duration: 2 days siRNA transfection, then 40 min LPS before fixation
# Challenge: LPS (Salmonella minnesota R595) at 10 ng/ml
# Measured: 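Microscopy ratio of nuclear to perinuclear-ring GFP-p65 signal, scaled to the plate median; gene score is the average of two replicate robust z-scores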
# Scale: p65 translocation robust z-score: higher = more nuclear NF-kappaB p65 after LPS than the plate median; nuclear/cytoplasmic p65 ratio: higher = more nuclear NF-kappaB p65
# Rule for the call: 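Active if robust z is above 3.3 (negative regulators) or below -1.56, the Tlr4 control median (positive regulators); activity score 50 or more; control wells not called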
# Meaning of the calls: active = hit (p65 shift raised or lowered); inactive = no clear change
# Here is a random part of about 17,000 deposited reagents. 762 of all reagents (4.5%) count as active. 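Active calls include both raised and lowered p65 entry, mostly lowered; wells with fewer than 50 cells lack a z-score.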 Raw values vary from plate to plate and are shown uncorrected. Reagents against one gene are numbered here. A reagent listed more than once was tested more than once; the source does not tell the runs apart.
Gene,reagent no.,p65 translocation robust z-score,"nuclear/cytoplasmic p65 ratio, rep 1","nuclear/cytoplasmic p65 ratio, rep 2",low cell count flag,Outcome
N4bp1,1,-0.55,1.48,1.77,enough cells to score,inactive
Abhd16a,1,0.2,1.54,1.96,enough cells to score,inactive
Zfp668,1,-3.27,1.17,1.29,enough cells to score,active
Anxa10,1,0.43,1.61,1.76,enough cells to score,inactive
Tti2,1,1.36,1.74,2.12,enough cells to score,inactive
Klrb1f,1,-0.78,1.2,1.42,enough cells to score,inactive
Klhl25,1,-0.37,1.59,1.71,enough cells to score,inactive
Nf2,1,0,1.37,1.41,enough cells to score,inactive
Etv1,1,0.16,1.52,1.36,enough cells to score,inactive
Rhbdd3,1,,1.15,1.05,fewer than 50 cells per well; well left out of scoring,inactive
Ufsp1,1,,1.46,1.51,fewer than 50 cells per well; well left out of scoring,inactive
Agap3,1,0.1,1.64,1.77,enough cells to score,inactive
Btnl10,1,1.54,1.7,1.68,enough cells to score,inactive
Or7g32,1,,1.44,1.31,fewer than 50 cells per well; well left out of scoring,inactive
Fbxo28,1,-1.02,1.43,1.39,enough cells to score,inactive
Cd47,1,-0.99,1.18,1.25,enough cells to score,inactive
Cd47,2,-1.16,1.28,1.38,enough cells to score,inactive
Gm10033,1,0.33,1.47,1.6,enough cells to score,inactive
Mill1,1,0.42,1.87,1.53,enough cells to score,inactive
Klf5,1,0.47,1.52,1.46,enough cells to score,inactive
Col23a1,1,0.79,1.69,1.91,enough cells to score,inactive
Pigk,1,-0.37,1.25,1.2,enough cells to score,inactive
Rplp1,1,,1.32,1.26,fewer than 50 cells per well; well left out of scoring,inactive
1110004F10Rik,1,0.79,1.58,1.62,enough cells to score,inactive
Sncg,1,-1.38,1.14,1.15,enough cells to score,inactive
Adra1b,1,-0.72,1.57,1.32,enough cells to score,inactive
Adra1b,1,-1.06,1.39,1.4,enough cells to score,inactive
Or2j3,1,-0.98,1.45,1.3,enough cells to score,inactive
Cd300lf,1,0.71,1.54,1.48,enough cells to score,inactive
Taf7l,1,0.3,1.56,1.56,enough cells to score,inactive

Ordered by “p65 translocation robust z-score” (descending): some entries from above
Gene,reagent no.,p65 translocation robust z-score,"nuclear/cytoplasmic p65 ratio, rep 1","nuclear/cytoplasmic p65 ratio, rep 2",low cell count flag,Outcome
Tti2,1,1.36,1.74,2.12,enough cells to score,inactive
Anxa10,1,0.43,1.61,1.76,enough cells to score,inactive
Nf2,1,0,1.37,1.41,enough cells to score,inactive
Klhl25,1,-0.37,1.59,1.71,enough cells to score,inactive
Klrb1f,1,-0.78,1.2,1.42,enough cells to score,inactive

Next entries follow:
Gene,reagent no.,p65 translocation robust z-score,"nuclear/cytoplasmic p65 ratio, rep 1","nuclear/cytoplasmic p65 ratio, rep 2",low cell count flag,Outcome
Blmh,1,0.04,1.66,1.58,enough cells to score,inactive
Ces1e,1,-1.79,1.31,1.21,enough cells to score,active
Taf11,1,0.88,1.65,1.63,enough cells to score,inactive
Kcnq4,1,-0.21,1.39,1.4,enough cells to score,inactive
Akr1c20,1,0.44,1.57,1.77,enough cells to score,inactive
Ifitm1,1,-0.22,1.39,1.36,enough cells to score,inactive
Mlxipl,1,-1.33,1.43,1.3,enough cells to score,inactive
Or51b6,1,1.58,1.63,1.47,enough cells to score,inactive
Iars1,1,-0.31,1.55,1.35,enough cells to score,inactive
Nptx1,1,-0.25,1.43,1.36,enough cells to score,inactive
Ldb3,1,0.09,1.49,1.51,enough cells to score,inactive
NALP6,1,-0.67,1.7,1.47,enough cells to score,inactive
Mrpl13,1,0.15,1.44,1.39,enough cells to score,inactive
Phyhipl,1,-0.34,1.38,1.21,enough cells to score,inactive
Pogz,1,,1.27,1.26,fewer than 50 cells per well; well left out of scoring,inactive
Rbbp7,1,0.02,1.5,1.54,enough cells to score,inactive
Letmd1,1,0.3,1.58,1.74,enough cells to score,inactive
Snx16,1,,0.99,1.03,fewer than 50 cells per well; well left out of scoring,inactive
Aifm1,1,0.49,1.51,1.48,enough cells to score,inactive
Mal,1,1.35,1.95,1.72,enough cells to score,inactive
Sh3bp5l,1,,1.11,1.45,fewer than 50 cells per well; well left out of scoring,inactive
N4bp3,1,-1.23,1.28,1.34,enough cells to score,inactive
Krtap31-1,1,,1.12,0,fewer than 50 cells per well; well left out of scoring,inactive
Fcrla,1,-0.11,1.57,1.63,enough cells to score,inactive
Dab2ip,1,0.18,1.67,1.5,enough cells to score,inactive
Thg1l,1,-0.66,1.46,1.44,enough cells to score,inactive
Cdkn3,1,-0.56,1.55,1.35,enough cells to score,inactive
Mylip,1,-0.71,1.65,1.5,enough cells to score,inactive
Or8k1,1,1.09,1.84,1.73,enough cells to score,inactive
